Some results were stated once for a whole list of compounds, not compound by compound.
Molecular target: T1, Recombinant human BACE1 (Homo sapiens, UniProt P56817)
T1 construct: purchased R&D Systems
Test: Assay of BACE1 inhibiting activity
Assay type: biochemical
Details: BACE1, by the similar test

By UniProt entry, the sequences of proteins in these tests, tags left out. Residues count along the entry.
UniProt P56817, 46-501: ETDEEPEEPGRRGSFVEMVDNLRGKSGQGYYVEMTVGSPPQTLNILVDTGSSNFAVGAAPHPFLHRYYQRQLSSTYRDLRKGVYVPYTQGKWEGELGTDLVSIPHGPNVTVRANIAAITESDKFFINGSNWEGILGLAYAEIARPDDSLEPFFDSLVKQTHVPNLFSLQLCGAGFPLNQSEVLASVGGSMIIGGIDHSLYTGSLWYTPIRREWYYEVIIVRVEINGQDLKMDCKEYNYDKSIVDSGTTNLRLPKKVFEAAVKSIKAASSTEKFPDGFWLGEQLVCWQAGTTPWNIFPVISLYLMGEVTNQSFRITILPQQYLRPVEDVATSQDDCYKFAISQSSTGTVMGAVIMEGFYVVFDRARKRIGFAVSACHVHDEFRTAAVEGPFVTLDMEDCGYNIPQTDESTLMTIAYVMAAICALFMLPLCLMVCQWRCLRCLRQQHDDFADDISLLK

IC50, ≤ 5 µM:
C[C@@]1(c2cc(Nc3ncccc3C#N)ccc2F)C=CSC(N)=N1 [Compound I-9]
COc1ccnc(Nc2ccc(F)c([C@]3(C)CCSC(N)=N3)c2)n1 [Compound I-8]
C[C@@]1(c2cc(Nc3ncccc3F)ccc2F)CCSC(N)=N1 [Compound I-4]
COc1cccnc1Nc1ccc(F)c([C@]2(C)CCOC(N)=N2)c1 [Compound I-6]
C[C@@]1(c2cc(Nc3ncccc3[N+](=O)[O-])ccc2F)CCSC(N)=N1 [Compound I-21]
C[C@@]1(c2cc(Nc3ccccn3)ccc2F)CCSC(N)=N1 [Compound I-5]
C[C@@]1(c2cc(Nc3ncccc3C(F)(F)F)ccc2F)CCSC(N)=N1 [Compound I-15]
C[C@@]1(c2cc(Nc3ncccc3O)ccc2F)CCSC(N)=N1 [Compound I-7]
C[C@@]1(c2cc(Nc3ncccc3C(N)=O)ccc2F)CCSC(N)=N1 [Compound I-22]
COc1cccnc1Nc1ccc(F)c([C@]2(C)C=CSC(N)=N2)c1 [Compound I-17]
C[C@@]1(c2cc(Nc3ncccc3C#N)ccc2F)CCOC(N)=N1 [Compound I-3]
C[C@@]1(c2cc(Nc3ncccn3)ccc2F)CCSC(N)=N1 [Compound I-2]
Cc1cccnc1Nc1ccc(F)c([C@]2(C)CCSC(N)=N2)c1 [Compound I-13]

Reference: patent publication US20120238557A1, “AMINOTHIAZINE OR AMINOOXAZINE DERIVATIVE HAVING AMINO LINKER” (SHIONOGI & CO., LTD., priority 2009, published 2012)
